These results are taken from patent US20150376252A1.

The chains behind the UniProt entries cited, without tags or fusion partners. Residues count along the entry.
UniProt O75581, residues 20-631: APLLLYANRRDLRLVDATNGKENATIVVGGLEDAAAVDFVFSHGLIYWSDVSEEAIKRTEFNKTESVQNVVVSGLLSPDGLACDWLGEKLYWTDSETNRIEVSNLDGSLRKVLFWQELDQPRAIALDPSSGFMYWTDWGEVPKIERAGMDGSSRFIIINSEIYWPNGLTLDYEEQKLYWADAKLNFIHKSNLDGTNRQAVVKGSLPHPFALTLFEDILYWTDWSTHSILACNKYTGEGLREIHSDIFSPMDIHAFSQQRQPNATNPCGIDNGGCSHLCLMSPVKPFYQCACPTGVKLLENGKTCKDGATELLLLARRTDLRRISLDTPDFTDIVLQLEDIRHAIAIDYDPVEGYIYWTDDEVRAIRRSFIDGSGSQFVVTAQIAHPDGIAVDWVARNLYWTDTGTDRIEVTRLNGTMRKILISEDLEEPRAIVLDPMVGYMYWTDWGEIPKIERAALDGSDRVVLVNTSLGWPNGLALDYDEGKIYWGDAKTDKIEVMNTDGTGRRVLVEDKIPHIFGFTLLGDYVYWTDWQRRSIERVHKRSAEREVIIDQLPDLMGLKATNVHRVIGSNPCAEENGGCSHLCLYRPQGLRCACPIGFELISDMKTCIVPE

Assay [1] concerns the target His8-tagged Lrp6 BP1-2 (Lrp6 extracellular beta-propeller domains 1 and 2) (UniProt O75581). The assay is described as follows: AlphaScreen luminescence proximity assay.
The target is the same in assay [2]. As to the kind of experiment: AlphaScreen (FIG. 13A).

No constants are given. Whether binding was seen depends on the method and setting. Some entries that bind do so weakly or less than the wild type.

B1: biotinylated DKK1 peptide (cyclic, biotin-…) (peptide)
peptide: GGGGGGCNSIKFCG
modifications: N-terminal biotin; disulfide bond between the two cysteines (cyclic)
In the case of B1, the binding entry in assay [1] and in assay [2] was “binds” each time.
